The assay has as its system Granulocytes/polymorphonuclear (PMN) cells. The assay is described as follows: H2O2 measurement, cell-based antioxidant protection in granulocytes/polymorphonuclear (PMN) cells assay. The source says:
H2O2 Measurement (Cell-Based Antioxidant Protection in Granulocytesipolymorphonuclear—PMN Cells Assay)

These results are taken from US11033596B2, “Antioxidant, anti-inflammatory compositions and uses thereof” (Malaysian Palm Oil Board, priority 2017, dated 2021).

Each structure is given as a SMILES string.

As for `O=C(O)C1=CC(=O)[C@@H](O)[C@H](O)C1` [3-dehydroshikimic acid], the “Enhancement of anti-inflammatory and anti-oxidative activity of other components” value is “enhancement effect could be seen”; the “Inhibitory action (in words)” value is reported as “shows inhibitory action”.
